# Test results: the supplement of paper PMC6411743
# The chains behind the UniProt entries cited, without tags or fusion partners. Where a name states a change or a piece, a line headed by the entry shows the natural chain unless it says otherwise.
# UniProt Q9BSL1: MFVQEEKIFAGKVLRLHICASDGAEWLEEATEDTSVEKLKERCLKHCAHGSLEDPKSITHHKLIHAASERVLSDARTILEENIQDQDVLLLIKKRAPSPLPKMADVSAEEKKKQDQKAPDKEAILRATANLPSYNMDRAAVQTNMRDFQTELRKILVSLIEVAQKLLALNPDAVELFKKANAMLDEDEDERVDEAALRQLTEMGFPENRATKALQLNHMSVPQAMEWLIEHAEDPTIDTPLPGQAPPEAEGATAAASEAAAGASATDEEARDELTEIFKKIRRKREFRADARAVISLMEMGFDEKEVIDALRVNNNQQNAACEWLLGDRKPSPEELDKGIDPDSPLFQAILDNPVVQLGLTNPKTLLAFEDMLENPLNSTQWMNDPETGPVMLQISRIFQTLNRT
# UniProt Q96TA1: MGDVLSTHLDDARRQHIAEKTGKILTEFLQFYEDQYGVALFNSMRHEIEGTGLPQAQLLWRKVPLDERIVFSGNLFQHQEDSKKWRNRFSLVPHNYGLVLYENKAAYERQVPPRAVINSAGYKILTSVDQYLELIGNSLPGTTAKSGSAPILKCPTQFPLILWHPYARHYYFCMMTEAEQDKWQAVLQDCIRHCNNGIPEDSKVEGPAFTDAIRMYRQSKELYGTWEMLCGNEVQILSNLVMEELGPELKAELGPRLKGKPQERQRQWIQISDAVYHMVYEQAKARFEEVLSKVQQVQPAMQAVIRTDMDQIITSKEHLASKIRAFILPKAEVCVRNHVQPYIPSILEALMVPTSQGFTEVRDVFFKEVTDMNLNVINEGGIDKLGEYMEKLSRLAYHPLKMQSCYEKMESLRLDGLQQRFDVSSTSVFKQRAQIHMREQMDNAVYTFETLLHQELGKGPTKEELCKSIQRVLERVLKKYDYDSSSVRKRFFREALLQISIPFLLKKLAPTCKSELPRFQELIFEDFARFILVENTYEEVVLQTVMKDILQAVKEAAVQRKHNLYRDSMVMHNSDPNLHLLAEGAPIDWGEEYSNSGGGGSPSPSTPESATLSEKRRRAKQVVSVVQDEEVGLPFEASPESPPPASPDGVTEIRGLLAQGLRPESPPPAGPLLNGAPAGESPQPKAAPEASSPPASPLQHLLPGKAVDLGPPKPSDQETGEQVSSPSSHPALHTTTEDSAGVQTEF
# UniProt Q9BWT6: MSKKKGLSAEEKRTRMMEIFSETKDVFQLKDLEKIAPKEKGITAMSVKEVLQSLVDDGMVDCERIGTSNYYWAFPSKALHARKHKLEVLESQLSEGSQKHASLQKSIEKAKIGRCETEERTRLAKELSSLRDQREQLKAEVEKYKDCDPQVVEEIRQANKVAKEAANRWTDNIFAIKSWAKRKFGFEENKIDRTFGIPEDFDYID
# UniProt Q9BWF3: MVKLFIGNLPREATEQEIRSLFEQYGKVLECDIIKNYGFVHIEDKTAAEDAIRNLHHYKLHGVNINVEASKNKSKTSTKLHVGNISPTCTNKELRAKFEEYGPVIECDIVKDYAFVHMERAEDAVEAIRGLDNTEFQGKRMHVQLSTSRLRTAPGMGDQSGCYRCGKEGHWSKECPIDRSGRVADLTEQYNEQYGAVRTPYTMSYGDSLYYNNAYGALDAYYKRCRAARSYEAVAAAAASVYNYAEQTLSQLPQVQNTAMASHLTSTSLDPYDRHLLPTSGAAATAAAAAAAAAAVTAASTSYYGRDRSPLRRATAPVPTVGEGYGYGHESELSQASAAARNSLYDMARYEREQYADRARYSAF
# ± gives the standard deviation of the averaged measurements. Some of the results follow.
# Compound: Nc1nc2c(ncn2[C@@H]2O[C@H](COP(=O)(O)OP(=O)(O)OP(=O)(O)O)[C@@H](O)[C@H]2O)c(=O)[nH]1 [guanosine triphosphate]
# Assay: NP40-soluble protein abundance relative to vehicle (solubility fold change) (ratio); higher = more soluble protein in presence of GTP
# Description: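 Solubility proteome profiling in Jurkat crude lysate. Lysate was treated with Mg-GTP (0.1-10 mM) for 10 min at room temperature and 3 min at 37 °C, then solubilised with 0.8% NP40 and benzonase, followed by ultracentrifugation. Proteins were quantified by TMT10 LC-MS/MS; the value is the NP40-soluble abundance relative to the NP40-processed vehicle, from 3 independent experiments.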
Target,NP40-soluble protein abundance (concentration: 0.1mM),NP40-soluble protein abundance (concentration: 0.5mM),NP40-soluble protein abundance (concentration: 1mM),NP40-soluble protein abundance (concentration: 2mM),NP40-soluble protein abundance (concentration: 4mM),NP40-soluble protein abundance (concentration: 6mM),NP40-soluble protein abundance (concentration: 8mM),NP40-soluble protein abundance (concentration: 10mM)
UniProt Q96L92 and related entries,1.03 ± 0.04,1.01 ± 0.079,0.926 ± 0.034,0.962 ± 0.084,0.94 ± 0.088,0.924 ± 0.04,0.886 ± 0.044,0.876 ± 0.1
UBAC1 (UniProt Q9BSL1),1.01 ± 0.039,0.975 ± 0.036,0.928 ± 0.063,0.976 ± 0.025,1.03 ± 0.029,0.965 ± 0.034,0.945 ± 0.049,0.999 ± 0.071
UniProt Q96TA1 and related entries,1 ± 0.015,1.01 ± 0.03,0.971 ± 0.035,0.942 ± 0.067,0.911 ± 0.039,0.9 ± 0.047,0.936 ± 0.035,0.925 ± 0.062
MND1 (UniProt Q9BWT6),0.801 ± 0.058,0.764 ± 0.027,0.901 ± 0.025,0.952 ± 0.054,0.885 ± 0.016,0.895 ± 0.08,0.817 ± 0.12,0.9206 ± 0.0042
RBM4 (UniProt Q9BWF3),1.04 ± 0.056,1.06 ± 0.1,1.07 ± 0.085,1.02 ± 0.058,1.01 ± 0.088,1.06 ± 0.14,1.03 ± 0.063,0.972 ± 0.086
